Substitutions are numbered along the chain they refer to. No constants are given. Whether binding was seen depends on the method and setting. Some binding calls cover weakened binding; strength is not graded here.
Columns and labels:
Assay in all cases: immunoprecipitation of point-mutated molecules (FIG. 5)
Dsg1-M7-8 (human) = Dsg1-M7-8 (human) (UniProt Q02413)
Dsg3-M1-2-3 (human) = molecular target: T1, Dsg3-M1-2-3 (human) (UniProt P32926)
T1 sequence (looked up): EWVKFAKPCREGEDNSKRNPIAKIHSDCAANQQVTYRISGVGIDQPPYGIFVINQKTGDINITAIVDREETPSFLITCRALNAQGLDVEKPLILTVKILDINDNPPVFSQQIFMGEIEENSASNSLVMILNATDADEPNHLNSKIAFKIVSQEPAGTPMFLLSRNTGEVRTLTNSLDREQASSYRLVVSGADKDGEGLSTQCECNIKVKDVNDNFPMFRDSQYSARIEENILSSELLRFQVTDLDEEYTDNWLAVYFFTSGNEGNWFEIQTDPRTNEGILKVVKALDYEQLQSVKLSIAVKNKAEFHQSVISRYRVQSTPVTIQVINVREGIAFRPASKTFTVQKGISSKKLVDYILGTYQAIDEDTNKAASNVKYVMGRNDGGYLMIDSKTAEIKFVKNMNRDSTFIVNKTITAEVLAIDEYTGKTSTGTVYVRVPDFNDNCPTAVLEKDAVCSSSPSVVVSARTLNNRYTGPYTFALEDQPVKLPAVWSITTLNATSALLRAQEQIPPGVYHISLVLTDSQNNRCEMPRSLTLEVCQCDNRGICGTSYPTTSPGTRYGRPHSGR

Protein sequences, listed by entry. Tags and fused reporters are not part of them. Lines headed by an entry give the natural chain unless they say otherwise; changes in a name come on top. Chains listed by the source or under a name are the forms on record and can include a tag or linker.
Dsg1-M7-8 (Q02413, form named): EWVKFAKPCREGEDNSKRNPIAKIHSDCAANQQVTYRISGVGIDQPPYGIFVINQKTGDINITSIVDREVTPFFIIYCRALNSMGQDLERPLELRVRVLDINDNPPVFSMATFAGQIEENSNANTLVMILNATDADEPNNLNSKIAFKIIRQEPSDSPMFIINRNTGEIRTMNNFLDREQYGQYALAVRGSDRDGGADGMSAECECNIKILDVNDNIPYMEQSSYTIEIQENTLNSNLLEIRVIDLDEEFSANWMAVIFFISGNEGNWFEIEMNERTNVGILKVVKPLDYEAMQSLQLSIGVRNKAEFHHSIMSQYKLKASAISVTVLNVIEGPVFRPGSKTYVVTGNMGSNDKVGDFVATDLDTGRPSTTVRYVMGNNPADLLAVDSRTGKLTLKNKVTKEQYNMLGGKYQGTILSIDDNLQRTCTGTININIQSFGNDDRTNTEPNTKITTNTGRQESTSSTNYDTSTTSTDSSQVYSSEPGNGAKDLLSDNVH

Dsg3-M8 (human) = molecular target: T2, Dsg3-M8 (human) (UniProt P32926)
T2 sequence (looked up): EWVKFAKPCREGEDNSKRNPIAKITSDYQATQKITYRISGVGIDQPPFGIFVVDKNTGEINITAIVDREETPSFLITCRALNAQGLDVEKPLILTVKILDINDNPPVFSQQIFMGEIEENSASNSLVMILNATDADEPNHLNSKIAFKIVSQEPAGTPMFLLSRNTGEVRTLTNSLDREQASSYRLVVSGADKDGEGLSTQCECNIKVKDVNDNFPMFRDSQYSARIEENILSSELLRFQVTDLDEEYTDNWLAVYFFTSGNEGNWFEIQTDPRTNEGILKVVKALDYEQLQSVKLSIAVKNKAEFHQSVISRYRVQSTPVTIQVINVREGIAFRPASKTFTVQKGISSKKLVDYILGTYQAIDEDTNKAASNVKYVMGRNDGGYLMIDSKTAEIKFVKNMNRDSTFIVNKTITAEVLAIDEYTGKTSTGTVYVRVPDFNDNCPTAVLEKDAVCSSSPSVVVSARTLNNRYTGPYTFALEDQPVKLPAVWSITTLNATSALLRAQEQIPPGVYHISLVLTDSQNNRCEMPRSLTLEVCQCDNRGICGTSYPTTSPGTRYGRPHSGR

Dsg3-M1-2 (human) = molecular target: T3, Dsg3-M1-2 (human) (UniProt P32926)
T3 sequence (looked up): T1 sequence (looked up) with Y48F, I53V, N54D, Q55K, K56N

- binding (Dsg1-M7-8 (human)): binds
- binding (Dsg3-M1-2-3 (human)): binds
- binding (Dsg3-M8 (human)): binds
- binding (Dsg3-M1-2 (human)): binds
B1: anti-Dsg3 monoclonal antibody AK23 (antibody, mouse IgG1, V domains shown)
VH: QVQLQQSGTELVKPGASVKLSCKSSGYTFTSYWINWVKQRPGQGLEWIGNINPSNGGINYNEKFKSKATLTVDKSSSTAYMQLKSLTSEDSAVYYCARGGYDGYPWGQGTTVTVS
VL: DIQMTQSPKFLLVSAGDRVTITCKASQSVSYDVAWYQQKPGQSPKLLISYASNRYTGVPDRFTGSGYGSDFTFTISTVQTEDLAVYFCQQDYSSPWTFGGGTKLELKR
notes: Mouse IgG1 kappa hybridoma antibody
